Measurements taken from the supplement of paper PMC10849652.
Some of the results follow.

Protein sequences, listed by entry. Tags and fused reporters are not part of them. Lines headed by an entry give the natural chain unless they say otherwise; changes in a name come on top.
UniProt Q9NPJ3: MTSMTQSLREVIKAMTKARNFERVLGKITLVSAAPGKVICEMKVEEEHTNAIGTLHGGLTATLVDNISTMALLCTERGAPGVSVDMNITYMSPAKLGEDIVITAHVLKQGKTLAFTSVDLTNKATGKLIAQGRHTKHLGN
UniProt O00763, whole entry, looked up: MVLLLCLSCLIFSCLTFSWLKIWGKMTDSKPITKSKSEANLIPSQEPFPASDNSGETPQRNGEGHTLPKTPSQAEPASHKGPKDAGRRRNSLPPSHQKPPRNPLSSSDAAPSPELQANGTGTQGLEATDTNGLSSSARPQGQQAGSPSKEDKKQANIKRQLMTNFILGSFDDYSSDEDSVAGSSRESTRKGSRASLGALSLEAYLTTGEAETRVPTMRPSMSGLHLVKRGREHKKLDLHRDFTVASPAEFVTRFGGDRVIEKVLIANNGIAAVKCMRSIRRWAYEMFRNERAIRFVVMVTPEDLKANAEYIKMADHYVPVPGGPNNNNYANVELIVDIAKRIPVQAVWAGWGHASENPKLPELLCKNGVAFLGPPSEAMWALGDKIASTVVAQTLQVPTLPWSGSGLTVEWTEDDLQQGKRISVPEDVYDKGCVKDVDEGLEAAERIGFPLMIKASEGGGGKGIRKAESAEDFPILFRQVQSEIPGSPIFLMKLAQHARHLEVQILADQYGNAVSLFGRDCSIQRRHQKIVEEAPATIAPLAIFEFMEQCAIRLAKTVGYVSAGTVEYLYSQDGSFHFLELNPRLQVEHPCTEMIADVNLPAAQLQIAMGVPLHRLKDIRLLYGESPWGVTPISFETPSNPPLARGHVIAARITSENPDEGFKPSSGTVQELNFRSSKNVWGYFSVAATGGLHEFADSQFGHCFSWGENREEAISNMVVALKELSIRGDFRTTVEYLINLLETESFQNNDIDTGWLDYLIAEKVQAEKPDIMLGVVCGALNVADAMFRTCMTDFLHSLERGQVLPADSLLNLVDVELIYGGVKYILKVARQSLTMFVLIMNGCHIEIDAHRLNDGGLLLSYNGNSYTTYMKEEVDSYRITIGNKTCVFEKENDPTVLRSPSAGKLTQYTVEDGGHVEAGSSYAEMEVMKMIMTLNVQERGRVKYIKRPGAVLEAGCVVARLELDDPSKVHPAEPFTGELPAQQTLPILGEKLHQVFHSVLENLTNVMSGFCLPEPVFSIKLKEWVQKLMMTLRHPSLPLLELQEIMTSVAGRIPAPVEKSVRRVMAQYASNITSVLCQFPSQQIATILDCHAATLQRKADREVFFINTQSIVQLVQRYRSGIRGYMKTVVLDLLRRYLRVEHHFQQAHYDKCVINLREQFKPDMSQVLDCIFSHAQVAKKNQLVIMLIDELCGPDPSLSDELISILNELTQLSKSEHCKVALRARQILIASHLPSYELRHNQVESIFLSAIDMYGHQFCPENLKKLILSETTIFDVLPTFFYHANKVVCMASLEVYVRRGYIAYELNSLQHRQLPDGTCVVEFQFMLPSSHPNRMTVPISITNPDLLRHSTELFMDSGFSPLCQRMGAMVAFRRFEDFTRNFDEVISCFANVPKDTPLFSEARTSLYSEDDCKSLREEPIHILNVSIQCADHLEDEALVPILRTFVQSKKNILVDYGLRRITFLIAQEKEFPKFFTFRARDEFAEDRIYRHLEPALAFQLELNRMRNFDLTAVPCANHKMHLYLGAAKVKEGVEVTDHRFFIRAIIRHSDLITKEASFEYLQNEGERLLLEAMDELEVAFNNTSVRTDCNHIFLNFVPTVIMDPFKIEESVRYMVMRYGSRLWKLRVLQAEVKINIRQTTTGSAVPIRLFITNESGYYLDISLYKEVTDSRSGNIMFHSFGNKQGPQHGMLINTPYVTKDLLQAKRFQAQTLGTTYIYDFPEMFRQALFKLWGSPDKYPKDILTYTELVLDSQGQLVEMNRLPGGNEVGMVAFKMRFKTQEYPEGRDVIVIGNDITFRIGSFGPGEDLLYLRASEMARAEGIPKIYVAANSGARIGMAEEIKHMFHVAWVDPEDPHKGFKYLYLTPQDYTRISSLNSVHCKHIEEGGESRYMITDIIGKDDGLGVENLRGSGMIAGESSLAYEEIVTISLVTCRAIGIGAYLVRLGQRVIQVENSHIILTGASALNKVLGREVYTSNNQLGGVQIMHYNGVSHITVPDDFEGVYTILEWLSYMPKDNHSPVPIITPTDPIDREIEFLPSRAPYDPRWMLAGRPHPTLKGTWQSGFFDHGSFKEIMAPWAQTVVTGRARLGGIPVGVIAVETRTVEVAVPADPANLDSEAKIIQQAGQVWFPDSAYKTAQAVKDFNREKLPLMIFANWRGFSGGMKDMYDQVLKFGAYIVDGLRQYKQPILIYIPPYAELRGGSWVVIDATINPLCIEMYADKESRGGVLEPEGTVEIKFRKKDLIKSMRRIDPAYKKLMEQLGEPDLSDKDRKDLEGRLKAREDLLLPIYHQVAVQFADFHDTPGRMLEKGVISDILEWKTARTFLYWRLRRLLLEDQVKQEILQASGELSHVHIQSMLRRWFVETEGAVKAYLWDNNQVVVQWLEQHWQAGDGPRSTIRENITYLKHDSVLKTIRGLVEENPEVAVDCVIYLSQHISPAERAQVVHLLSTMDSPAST
UniProt Q9H7C9: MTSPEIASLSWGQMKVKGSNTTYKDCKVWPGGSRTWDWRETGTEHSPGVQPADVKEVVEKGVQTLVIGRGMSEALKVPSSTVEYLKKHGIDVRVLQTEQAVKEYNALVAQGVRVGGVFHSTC
UniProt Q9NUQ8: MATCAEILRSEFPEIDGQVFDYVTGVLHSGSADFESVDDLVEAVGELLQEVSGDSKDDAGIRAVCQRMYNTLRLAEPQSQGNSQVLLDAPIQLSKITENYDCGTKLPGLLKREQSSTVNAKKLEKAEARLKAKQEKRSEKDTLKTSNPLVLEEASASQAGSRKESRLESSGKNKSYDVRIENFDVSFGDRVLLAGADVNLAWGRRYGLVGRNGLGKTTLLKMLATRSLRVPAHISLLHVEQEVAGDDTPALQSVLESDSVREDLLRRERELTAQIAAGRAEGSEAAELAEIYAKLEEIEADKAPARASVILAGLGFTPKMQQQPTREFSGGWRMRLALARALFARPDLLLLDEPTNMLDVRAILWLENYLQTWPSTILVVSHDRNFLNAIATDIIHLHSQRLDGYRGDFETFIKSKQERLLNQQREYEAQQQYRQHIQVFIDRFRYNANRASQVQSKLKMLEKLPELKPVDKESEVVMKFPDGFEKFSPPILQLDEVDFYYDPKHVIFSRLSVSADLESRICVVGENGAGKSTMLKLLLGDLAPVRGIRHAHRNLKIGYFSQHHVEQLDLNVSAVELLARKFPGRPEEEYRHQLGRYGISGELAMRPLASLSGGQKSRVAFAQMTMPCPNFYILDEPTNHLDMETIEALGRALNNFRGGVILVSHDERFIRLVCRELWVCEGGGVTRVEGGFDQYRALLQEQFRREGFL
UniProt O14639: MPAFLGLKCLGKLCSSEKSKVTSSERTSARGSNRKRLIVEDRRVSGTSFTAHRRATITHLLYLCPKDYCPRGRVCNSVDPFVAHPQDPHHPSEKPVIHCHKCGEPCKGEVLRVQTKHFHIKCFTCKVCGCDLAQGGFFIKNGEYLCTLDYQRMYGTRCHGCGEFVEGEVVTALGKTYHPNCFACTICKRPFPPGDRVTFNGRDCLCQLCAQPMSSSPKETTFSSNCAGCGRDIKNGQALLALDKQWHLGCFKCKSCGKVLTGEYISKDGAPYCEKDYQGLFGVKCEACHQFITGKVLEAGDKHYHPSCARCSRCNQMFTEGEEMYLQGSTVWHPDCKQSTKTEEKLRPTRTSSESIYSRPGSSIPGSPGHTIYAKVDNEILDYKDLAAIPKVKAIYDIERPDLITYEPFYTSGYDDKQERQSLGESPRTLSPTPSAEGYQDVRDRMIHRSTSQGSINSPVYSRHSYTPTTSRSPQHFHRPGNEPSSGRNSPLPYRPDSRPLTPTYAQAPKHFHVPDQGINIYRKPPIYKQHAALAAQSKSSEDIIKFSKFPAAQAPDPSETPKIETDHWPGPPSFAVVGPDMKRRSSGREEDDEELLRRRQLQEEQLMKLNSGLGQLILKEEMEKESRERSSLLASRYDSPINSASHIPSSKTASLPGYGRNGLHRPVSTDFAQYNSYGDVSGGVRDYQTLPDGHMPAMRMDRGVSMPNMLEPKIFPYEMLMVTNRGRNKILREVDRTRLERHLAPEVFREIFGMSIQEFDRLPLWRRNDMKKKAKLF
UniProt P42684, whole entry, looked up: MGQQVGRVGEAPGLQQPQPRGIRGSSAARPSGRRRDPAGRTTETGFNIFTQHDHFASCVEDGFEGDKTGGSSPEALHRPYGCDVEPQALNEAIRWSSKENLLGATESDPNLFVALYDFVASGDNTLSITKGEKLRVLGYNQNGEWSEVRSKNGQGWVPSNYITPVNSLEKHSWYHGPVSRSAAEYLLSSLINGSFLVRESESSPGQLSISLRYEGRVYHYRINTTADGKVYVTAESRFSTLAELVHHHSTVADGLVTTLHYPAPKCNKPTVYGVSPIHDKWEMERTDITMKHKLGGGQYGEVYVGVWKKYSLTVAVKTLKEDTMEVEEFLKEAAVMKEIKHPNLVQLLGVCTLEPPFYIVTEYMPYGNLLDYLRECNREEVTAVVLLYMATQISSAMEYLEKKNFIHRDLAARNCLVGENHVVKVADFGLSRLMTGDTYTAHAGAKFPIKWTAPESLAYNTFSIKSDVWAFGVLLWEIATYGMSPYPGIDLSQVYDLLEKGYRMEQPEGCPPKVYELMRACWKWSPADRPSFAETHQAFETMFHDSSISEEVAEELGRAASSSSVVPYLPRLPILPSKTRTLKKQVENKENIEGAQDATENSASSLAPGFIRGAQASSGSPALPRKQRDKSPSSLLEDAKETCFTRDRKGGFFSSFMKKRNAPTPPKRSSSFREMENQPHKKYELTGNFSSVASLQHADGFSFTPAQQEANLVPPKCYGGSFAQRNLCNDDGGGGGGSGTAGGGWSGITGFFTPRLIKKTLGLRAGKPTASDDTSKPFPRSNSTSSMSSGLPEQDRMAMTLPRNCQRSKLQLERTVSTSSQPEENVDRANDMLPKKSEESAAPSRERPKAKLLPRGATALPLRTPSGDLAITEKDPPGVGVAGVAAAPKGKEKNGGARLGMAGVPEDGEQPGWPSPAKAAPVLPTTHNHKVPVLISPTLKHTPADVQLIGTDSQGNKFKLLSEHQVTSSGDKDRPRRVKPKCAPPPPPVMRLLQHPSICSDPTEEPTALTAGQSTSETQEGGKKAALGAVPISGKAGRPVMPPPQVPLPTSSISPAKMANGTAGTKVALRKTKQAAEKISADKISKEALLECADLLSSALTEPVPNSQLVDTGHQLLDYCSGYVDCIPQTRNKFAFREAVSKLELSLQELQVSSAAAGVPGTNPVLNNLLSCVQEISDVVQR
UniProt Q96IU4: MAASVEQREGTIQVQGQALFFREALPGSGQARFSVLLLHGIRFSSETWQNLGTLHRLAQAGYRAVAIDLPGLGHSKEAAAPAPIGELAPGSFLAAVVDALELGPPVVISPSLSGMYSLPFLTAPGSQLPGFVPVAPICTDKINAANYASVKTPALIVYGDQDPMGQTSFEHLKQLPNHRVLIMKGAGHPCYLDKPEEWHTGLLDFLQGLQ
UniProt Q9NYB9: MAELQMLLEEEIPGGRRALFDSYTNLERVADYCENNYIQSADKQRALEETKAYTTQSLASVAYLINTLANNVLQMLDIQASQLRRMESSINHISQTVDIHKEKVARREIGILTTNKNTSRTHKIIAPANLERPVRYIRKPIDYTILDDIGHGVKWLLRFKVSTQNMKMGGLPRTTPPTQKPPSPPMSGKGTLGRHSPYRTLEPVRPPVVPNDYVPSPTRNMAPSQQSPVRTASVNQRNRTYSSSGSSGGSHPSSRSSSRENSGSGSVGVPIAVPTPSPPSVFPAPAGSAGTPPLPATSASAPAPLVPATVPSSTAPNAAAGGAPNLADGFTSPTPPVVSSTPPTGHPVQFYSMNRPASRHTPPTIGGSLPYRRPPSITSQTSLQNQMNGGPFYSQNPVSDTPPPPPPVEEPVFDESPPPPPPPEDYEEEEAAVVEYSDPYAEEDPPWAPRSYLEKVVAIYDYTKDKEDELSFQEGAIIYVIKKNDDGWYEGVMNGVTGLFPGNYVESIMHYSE
UniProt P42765: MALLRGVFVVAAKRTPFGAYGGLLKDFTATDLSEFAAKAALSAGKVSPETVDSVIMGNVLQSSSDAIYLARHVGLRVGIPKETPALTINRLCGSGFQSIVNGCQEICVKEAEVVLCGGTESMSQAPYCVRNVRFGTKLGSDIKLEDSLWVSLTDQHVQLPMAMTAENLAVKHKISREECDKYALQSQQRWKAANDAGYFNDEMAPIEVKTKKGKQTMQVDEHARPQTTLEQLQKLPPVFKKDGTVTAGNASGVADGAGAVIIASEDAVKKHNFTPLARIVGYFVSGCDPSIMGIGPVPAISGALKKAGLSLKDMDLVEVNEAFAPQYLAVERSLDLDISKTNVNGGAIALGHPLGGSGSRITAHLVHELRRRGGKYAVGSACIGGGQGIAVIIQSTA

Assays:
Experiment in all cases: log2 fold change, soluble protein after heating vs DMSO (PISA); higher = thermal stabilisation; K562 lysate, 10 uM; active = over 0.2 and 3.5 SD of the protein, either way, in both replicates (recomputed)
lapatinib = compound: CS(=O)(=O)CCNCc1ccc(-c2ccc3ncnc(Nc4ccc(OCc5cccc(F)c5)c(Cl)c4)c3c2)o1 [lapatinib]
Method in brief: (§1)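 A 30 min treatment with 10 μM compound was applied to crude K562 extract at 1 mg/mL protein in PBS pH 7.4 with 1 mM MgCl2. Heating for 3 min spanned 48°C-58°C, after which aliquots were pooled, adjusted to 0.5% NP-40 at 4°C and spun at 21,000xg for 90 min. TMTpro 16plex LC-MS/MS of the supernatant, with channel sums equalised, gave values recorded as log-two fold change in thermal stability against solvent controls, from duplicates.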

pictilisib = compound: CS(=O)(=O)N1CCN(Cc2cc3nc(-c4cccc5[nH]ncc45)nc(N4CCOCC4)c3s2)CC1 [pictilisib]
Method in brief: as §1

crizotinib = compound: C[C@@H](Oc1cc(-c2cnn(C3CCNCC3)c2)cnc1N)c1c(Cl)ccc(F)c1Cl [crizotinib]
Method in brief: as §1

[1] = compound: C[C@H](C1=CC=C(C=C1)C(=O)NC2=C3C=CNC3=NC=C2)N
Method in brief: as §1

duvelisib = compound: C[C@H](Nc1ncnc2nc[nH]c12)c1cc2cccc(Cl)c2c(=O)n1-c1ccccc1 [duvelisib]
Method in brief: as §1

gandotinib = compound: Cc1cc(Nc2cc(CN3CCOCC3)c3nc(C)c(Cc4ccc(Cl)cc4F)n3n2)n[nH]1 [gandotinib]
Method in brief: as §1

tozasertib = compound: Cc1cc(Nc2cc(N3CCN(C)CC3)nc(Sc3ccc(NC(=O)C4CC4)cc3)n2)n[nH]1 [tozasertib]
Method in brief: as §1

doramapimod = compound: Cc1ccc(-n2nc(C(C)(C)C)cc2NC(=O)Nc2ccc(OCCN3CCOCC3)c3ccccc23)cc1 [doramapimod]
Method in brief: as §1

bafetinib = compound: Cc1ccc(NC(=O)c2ccc(CN3CC[C@H](N(C)C)C3)c(C(F)(F)F)c2)cc1Nc1nccc(-c2cncnc2)n1 [bafetinib]
Method in brief: as §1

[2] = compound: Cc1cccc(CC(=O)N2CCc3c2ccc(-c2cn(C)c4ncnc(N)c24)c3F)n1
Method in brief: as §1

nilotinib = compound: Cc1cn(-c2cc(NC(=O)c3ccc(C)c(Nc4nccc(-c5cccnc5)n4)c3)cc(C(F)(F)F)c2)cn1 [nilotinib]
Method in brief: as §1

[3] = compound: Cc1nc(Nc2n[nH]c3c2CN(C(=O)N[C@H](CN(C)C)c2ccccc2)C3(C)C)c2sccc2n1
Method in brief: as §1

dasatinib = compound: Cc1nc(Nc2ncc(C(=O)Nc3c(C)cccc3Cl)s2)cc(N2CCN(CCO)CC2)n1 [dasatinib]
Method in brief: as §1

[4] = compound: Cc1ncc(-c2ccnc(Nc3ccc(S(C)(=O)=O)cc3)n2)n1C(C)C
Method in brief: as §1

[5] = compound: Cn1cc(-c2ccc3c(c2)CCN3C(=O)Cc2cccc(C(F)(F)F)c2)c2c(N)ncnc21
Method in brief: as §1

quisinostat = compound: Cn1cc(CNCC2CCN(c3ncc(C(=O)NO)cn3)CC2)c2ccccc21 [quisinostat]
Method in brief: as §1

tipifarnib = compound: Cn1cncc1[C@@](N)(c1ccc(Cl)cc1)c1ccc2c(c1)c(-c1cccc(Cl)c1)cc(=O)n2C [tipifarnib]
Method in brief: as §1

[6] = compound: NC(=O)Nc1cc(-c2cccc(F)c2)sc1C(=O)N[C@H]1CCCNC1
Method in brief: as §1

[7] = compound: NC(=O)c1cnc(N[C@@H]2CCCC[C@@H]2N)nc1Nc1cccc(-n2nccn2)c1
Method in brief: as §1

[8] = compound: NC1(c2ccc(-c3nc4ccn5c(=O)[nH]nc5c4cc3-c3ccccc3)cc2)CCC1
Method in brief: as §1

Measured: log2 fold change

ACOT13 (UniProt Q9NPJ3)
inactive: lapatinib -0.024 | pictilisib -0.017 | crizotinib 0.018 | [1] 0.02 | duvelisib 0.022 | gandotinib 0.001 | tozasertib -0.003 | doramapimod 0.016 | bafetinib 0.055 | [2] -0.045 | nilotinib 0.069 | [3] -0.011 | dasatinib 0.015 | [4] 0.028 | [5] 0.044 | quisinostat -0.023 | tipifarnib 0.019 | [6] 0.005 | [7] -0.04 | [8] -0.013

ACACB (UniProt O00763)
inactive: lapatinib -0.032 | pictilisib -0.029 | crizotinib -0.103 | [1] -0.113 | duvelisib 0.032 | gandotinib 0.021 | tozasertib 0.072 | doramapimod 0.054 | bafetinib -0.113 | [2] 0.165 | nilotinib -0.001 | [3] -0.042 | dasatinib -0.021 | [4] -0.052 | [5] 0.05 | quisinostat -0.061 | tipifarnib 0.048 | [6] 0.062 | [7] -0.001 | [8] -0.018

AAMDC (UniProt Q9H7C9)
inactive: lapatinib 0.02 | pictilisib -0.046 | crizotinib 0.007 | [1] 0.025 | duvelisib -0.006 | gandotinib -0.045 | tozasertib 0.039 | doramapimod 0.022 | bafetinib -0.024 | [2] -0.014 | nilotinib 0.097 | [3] 0.006 | dasatinib 0.041 | [4] -0.045 | [5] 0.031 | quisinostat -0.03 | tipifarnib 0.081 | [6] -0.045 | [7] -0.044 | [8] 0.002

ABCF3 (UniProt Q9NUQ8)
inactive: lapatinib -0.019 | pictilisib 0.006 | crizotinib -0.033 | [1] 0.02 | duvelisib 0.018 | gandotinib -0.075 | tozasertib 0.063 | doramapimod 0.011 | bafetinib -0.062 | [2] 0.017 | nilotinib -0.025 | [3] 0.014 | dasatinib -0.053 | [4] 0.001 | [5] 0.044 | quisinostat -0.04 | tipifarnib -0.003 | [6] 0.012 | [7] 0.011 | [8] -0.062

ABI1 isoform 9 (UniProt Q8IZP0)
active: [1] -0.26
inactive: lapatinib 0.011 | pictilisib -0.048 | crizotinib -0.006 | duvelisib 0.01 | gandotinib 0.13 | tozasertib 0.008 | doramapimod -0.015 | bafetinib 0.08 | [2] 0.163 | nilotinib -0.006 | [3] -0.004 | dasatinib -0.001 | [4] -0.02 | [5] -0.016 | quisinostat 0.003 | tipifarnib -0.01 | [6] -0.023 | [7] 0.003 | [8] 0.032

Two neighbouring records already listed, quoted:
ACOT13 (UniProt Q9NPJ3)
inactive: lapatinib -0.024 | pictilisib -0.017 | crizotinib 0.018 | [1] 0.02 | duvelisib 0.022 | gandotinib 0.001 | tozasertib -0.003 | doramapimod 0.016 | bafetinib 0.055 | [2] -0.045 | nilotinib 0.069 | [3] -0.011 | dasatinib 0.015 | [4] 0.028 | [5] 0.044 | quisinostat -0.023 | tipifarnib 0.019 | [6] 0.005 | [7] -0.04 | [8] -0.013

ACACB (UniProt O00763)
inactive: lapatinib -0.032 | pictilisib -0.029 | crizotinib -0.103 | [1] -0.113 | duvelisib 0.032 | gandotinib 0.021 | tozasertib 0.072 | doramapimod 0.054 | bafetinib -0.113 | [2] 0.165 | nilotinib -0.001 | [3] -0.042 | dasatinib -0.021 | [4] -0.052 | [5] 0.05 | quisinostat -0.061 | tipifarnib 0.048 | [6] 0.062 | [7] -0.001 | [8] -0.018

(further entries)

ABLIM1 (UniProt O14639)
inactive: lapatinib 0.048 | pictilisib 0.042 | crizotinib -0.143 | [1] -0.121 | duvelisib -0.029 | gandotinib 0.155 | tozasertib -0.017 | doramapimod -0.013 | bafetinib -0.056 | [2] 0.181 | nilotinib -0.107 | [3] -0.005 | dasatinib -0.039 | [4] -0.009 | [5] -0.014 | quisinostat -0.233 | tipifarnib -0.028 | [6] 0.032 | [7] 0.017 | [8] -0.022

AAMP (UniProt Q13685)
inactive: lapatinib -0.04 | pictilisib -0.022 | crizotinib -0.007 | [1] 0.026 | duvelisib 0.008 | gandotinib -0.019 | tozasertib -0.001 | doramapimod 0.023 | bafetinib -0.04 | [2] -0.069 | nilotinib 0.046 | [3] -0.001 | dasatinib 0.027 | [4] 0.065 | [5] 0.027 | quisinostat -0.015 | tipifarnib 0.007 | [6] -0.019 | [7] -0.002 | [8] 0.02

ABL2 (UniProt P42684)
inactive: lapatinib -0.053 | pictilisib -0.029 | crizotinib 0.367 | [1] -0.216 | duvelisib 0.079 | gandotinib 0.228 | tozasertib 0.273 | doramapimod -0.04 | bafetinib 0.439 | [2] 0 | nilotinib -0.084 | [3] 0.157 | dasatinib 0.067 | [4] 0.091 | [5] 0.064 | quisinostat -0.16 | tipifarnib -0.116 | [6] 0.103 | [7] -0.028 | [8] -0.027

ABHD17B (UniProt Q5VST6)
active: tozasertib -0.513
inactive: lapatinib 0.075 | pictilisib -0.076 | crizotinib -0.051 | [1] 0.01 | duvelisib 0.026 | gandotinib -0.012 | doramapimod -0.026 | bafetinib 0.01 | [2] 0.183 | nilotinib 0.032 | [3] 0.057 | dasatinib 0.007 | [4] 0.087 | [5] 0.095 | quisinostat 0.003 | tipifarnib -0.099 | [6] 0.009 | [7] -0.041 | [8] 0.009

ABHD5 (UniProt Q8WTS1)
inactive: lapatinib -0.086 | pictilisib 0.011 | crizotinib -0.052 | [1] 0.021 | duvelisib -0.012 | gandotinib -0.062 | tozasertib 0.043 | doramapimod -0.042 | bafetinib 0.037 | [2] -0.006 | nilotinib -0.153 | [3] 0.037 | dasatinib 0 | [4] -0.093 | [5] -0.044 | quisinostat -0.001 | tipifarnib -0.17 | [6] 0.002 | [7] -0.038 | [8] 0.018

A0A0B4J2A0, A0A0B4J2A0
inactive: lapatinib 0.014 | pictilisib -0.017 | crizotinib -0.048 | [1] -0.01 | duvelisib 0.025 | gandotinib -0.065 | tozasertib -0.01 | doramapimod 0.009 | bafetinib -0.036 | [2] 0.046 | nilotinib 0.074 | [3] 0.011 | dasatinib -0.007 | [4] 0.007 | [5] -0.014 | quisinostat -0.015 | tipifarnib 0.008 | [6] -0.004 | [7] 0.019 | [8] -0.034

ABHD14B (UniProt Q96IU4)
inactive: lapatinib 0.014 | pictilisib -0.003 | crizotinib 0.013 | [1] 0.025 | duvelisib -0.002 | gandotinib -0.006 | tozasertib 0.006 | doramapimod -0.002 | bafetinib -0.039 | [2] 0.013 | nilotinib 0.017 | [3] 0.004 | dasatinib 0.002 | [4] 0.052 | [5] -0.008 | quisinostat -0.039 | tipifarnib 0.004 | [6] -0.018 | [7] -0.02 | [8] -0.032

ACIN1 (UniProt E7EQT4)
inactive: lapatinib -0.001 | pictilisib -0.047 | crizotinib -0.1 | duvelisib -0.021 | gandotinib 0.047 | tozasertib 0 | doramapimod 0.068 | bafetinib -0.063 | [2] 0.032 | nilotinib 0.033 | [3] -0.032 | dasatinib 0.043 | [4] 0.006 | [5] 0.195 | quisinostat -0.087 | tipifarnib -0.021 | [6] -0.072 | [7] 0.041 | [8] -0.039
active: [1] -0.28

ABI2 (UniProt Q9NYB9)
inactive: lapatinib 0.014 | pictilisib 0 | crizotinib 0.036 | [1] 0.016 | duvelisib 0.02 | gandotinib -0.111 | tozasertib 0.024 | doramapimod -0.087 | bafetinib -0.004 | [2] -0.126 | nilotinib -0.04 | [3] -0.023 | dasatinib -0.02 | [4] 0.015 | [5] -0.02 | quisinostat 0.068 | tipifarnib 0.013 | [6] 0.023 | [7] 0.026 | [8] 0.019

A0A096LPI6, A0A096LPI6
inactive: lapatinib 0.021 | pictilisib -0.03 | crizotinib 0.012 | [1] 0.048 | duvelisib 0.033 | gandotinib -0.036 | tozasertib 0.012 | doramapimod -0.075 | bafetinib 0.005 | [2] -0.038 | nilotinib -0.001 | [3] -0.014 | dasatinib -0.004 | [4] 0.002 | [5] 0.009 | quisinostat 0.036 | tipifarnib 0.027 | [6] -0.034 | [7] -0.018 | [8] 0.015

ACAA2 (UniProt P42765)
inactive: lapatinib -0.039 | pictilisib -0.02 | crizotinib 0.018 | [1] 0.008 | duvelisib 0.013 | gandotinib 0.043 | tozasertib -0.05 | doramapimod 0.002 | bafetinib 0.019 | [2] 0.003 | nilotinib 0.025 | [3] -0.025 | dasatinib 0.005 | [4] 0.015 | [5] -0.026 | quisinostat 0.033 | tipifarnib 0.001 | [6] 0.001 | [7] 0.009 | [8] 0.019
